This assay addresses extracellular domain of CTLA-4 (yeast two-hybrid deletion construct of sCTLA-4) (human) (UniProt P16410). The assay is described as follows: two-hybrid; deletion constructs of RGMB in pGADT7 and of sCTLA-4 in pGBK-T7, Y2H-Gold yeast, SD -TL agar with X-αGal (20 μg/ml).

Amino acid sequences for entries named in this document (tags omitted). A change or cut given only in a name is not applied to a line headed by its entry. Residues count along the entry.
UniProt P16410, residues 36-161: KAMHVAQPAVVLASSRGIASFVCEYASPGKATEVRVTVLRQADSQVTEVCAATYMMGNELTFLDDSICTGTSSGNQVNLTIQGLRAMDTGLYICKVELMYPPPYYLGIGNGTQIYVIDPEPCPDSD

Results are given in words; binding and its absence hold for the method and conditions named. Some binding calls cover weakened binding; strength is not graded here.

As to NYLSVQVTNVPVVPGSSATATNKITIIFKA (domain or fragment, UniProt Q6NW40 193-222) [RGMB aa193-222 (yeast two-hybrid deletion fragment)], the binding entry is “binds”.
